In patent US5710249 (dated 1998):

Experiment: general procedure: Boc solid-phase peptide synthesis; MBHA resin; DCC
Conditions: whole synthesis, CZE and RP-HPLC

PEPTIDE1{[ac].[D-2NAL].[4Cl-D-Phe].[D-3PAL].S.[Aph(atz)].[D-Aph(atz)].L.[ILys].P.[dA].[am]}$$$$V2.0
final HPLC purity: about 97%

Some peptides are written in HELM: one residue between dots, names in brackets for other building blocks, links after the first $.
